Test results taken from patent US20030027314A1.

Target: bZIP VBP protein (chicken vitellogenin gene-binding protein) (chicken)
Assay: CD thermal melt: the mixture gives the same curve as the sum of the two homodimer curves

binding: no binding
B1: 3heptad-F (designed binder)
chain: ASMTGGQQMGRDPGGGLARENEELEKEAEELEQENAELEQEVLELESRNDRLRKEVEQLERELDTLRGIFRQLPESSLVKAMGNCA

These are yes or no findings as the source states them, for the method shown.
